Our source for the binding values is publication PMC10507114.

Substitutions are numbered along the chain they refer to. Results are given in words; binding and its absence hold for the method and conditions named. Binding seen in cells or lysates may run through a third protein. Some entries that bind do so weakly or less than the wild type. For some of these results: Sequences can lack the tags named with a protein.

Holding throughout (test): co-IP
Test [1] addresses T1, FLAG-tagged VAMP8-K47A (UniProt Q9BV40).
T1 sequence: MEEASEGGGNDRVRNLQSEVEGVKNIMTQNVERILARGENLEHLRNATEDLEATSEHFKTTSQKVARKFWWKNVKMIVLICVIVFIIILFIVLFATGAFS

The target of test [2] is T2, FLAG-tagged vesicle-associated membrane protein 8 (VAMP8), wild type, Q9BV40.
T2 chain: T1 sequence with A47K
As to conditions: remark: other sources report otherwise.

The target in test [3] is T3, VAMP8, endogenous in H9c2 cells (rat (endogenous in H9c2)) (UniProt Q9WUF4).
T3 sequence: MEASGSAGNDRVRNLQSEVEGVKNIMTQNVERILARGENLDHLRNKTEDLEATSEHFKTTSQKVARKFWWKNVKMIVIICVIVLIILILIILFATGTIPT

On to “syntaxin 17 (STX17), in HEK293 cells (from UniProt P56962 1-302)”, for which the binding entry in test [1] is on record as “binds”.

B1: syntaxin 17 (STX17), in HEK293 cells, P56962 1-302 (protein)
chain: MSEDEEKVKLRRLEPAIQKFIKIVIPTDLERLRKHQINIEKYQRCRIWDKLHEEHINAGRTVQQLRSNIREIEKLCLKVRKDDLVLLKRMIDPVKEEASAATAEFLQLHLESVEELKKQFNDEETLLQPPLTRSMTVGGAFHTTEAEASSQSLTQIYALPEIPQDQNAAESWETLEADLIELSQLVTDFSLLVNSQQEKIDSIADHVNSAAVNVEEGTKNLGKAAKYKLAALPVAGALIGGMVGGPIGLLAGFKVAGIAAALGGGVLGFTGGKLIQRKKQKMMEKLTSSCPDLPSQTDKKCS
For B1, the binding entry in test [2] is “binds”.

B2: STX17, endogenous in H9c2 cells (protein, UniProt Q9Z158 1-301)
chain: MSEDEEKVKLRRLEPAIQKFTKIVIPTDLERLKKHQINIEKYQRCRIWDKLHEEHINAGRTVQQLRSNIREMEKLCLKVHKDDLILLKRMIDPMKEAAAAATAEFLQLHLESVEELKKQVKNEEALLQPSLTRSTTIDGVHTGEAEAASQSLTQIYALPEIPRDQNAAESWETLEADLIELSHLVTDMSLLVNSQQEKIDSIADHVNSAAVNVEEGTKNLQKAAKYKLAALPVAGAVIGGVVGGPIGLLAGFKVAGIAAALGGGVLGFTGGKLIQRRKQKMMEKLTSSCPDLPSQSDKKCS
Turning to B2, the binding entry in test [3] is “binds”.

B3: SNAP29, endogenous in H9c2 cells (protein, UniProt Q9Z2P6 1-257)
chain: MSGYPKSYNPFDDDVEDEDTRPAPWKDARDLPDGPDPPIDRQQYLRQEVLRGPSATAASTSRSLFLMYESEKIGVASSEELVRQRGVLEHTEKMVDKMDQDLKMSQKHINSIKSVFGGFINYFKSKPVEPPPEQNGSIVPQPSSRLKEAINTSKDQESKYQASHPNLRRLHDAELDSVPASTVNTEVYPKNSSLRAYHQKIDSNLDELSVGLGRLKDIALGMQTEIEEQDDILDRLTTKVDKLDVNIKSTEKKVRQL
On to B3, for which the binding entry in test [3] is on record as “binds”.
